Results are given in words; binding and its absence hold for the method and conditions named. Binding seen in cells or lysates may run through a third protein. Some entries that bind do so weakly or less than the wild type. For some assays here: Sequences can lack the tags named with a protein.

Protein sequences, listed by entry. Tags and fused reporters are not part of them.
UniProt P49336: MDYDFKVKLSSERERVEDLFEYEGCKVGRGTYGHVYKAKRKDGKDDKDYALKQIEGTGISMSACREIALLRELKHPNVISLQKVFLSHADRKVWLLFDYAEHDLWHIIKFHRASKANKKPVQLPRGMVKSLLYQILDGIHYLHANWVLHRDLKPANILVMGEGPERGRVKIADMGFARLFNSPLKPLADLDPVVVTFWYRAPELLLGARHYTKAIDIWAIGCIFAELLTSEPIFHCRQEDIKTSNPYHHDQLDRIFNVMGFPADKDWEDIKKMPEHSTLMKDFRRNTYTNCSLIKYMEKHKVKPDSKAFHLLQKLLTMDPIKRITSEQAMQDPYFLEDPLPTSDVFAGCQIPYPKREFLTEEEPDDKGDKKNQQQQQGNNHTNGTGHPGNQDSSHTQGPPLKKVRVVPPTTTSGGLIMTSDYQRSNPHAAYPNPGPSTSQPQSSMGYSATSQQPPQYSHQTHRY
UniProt P48382: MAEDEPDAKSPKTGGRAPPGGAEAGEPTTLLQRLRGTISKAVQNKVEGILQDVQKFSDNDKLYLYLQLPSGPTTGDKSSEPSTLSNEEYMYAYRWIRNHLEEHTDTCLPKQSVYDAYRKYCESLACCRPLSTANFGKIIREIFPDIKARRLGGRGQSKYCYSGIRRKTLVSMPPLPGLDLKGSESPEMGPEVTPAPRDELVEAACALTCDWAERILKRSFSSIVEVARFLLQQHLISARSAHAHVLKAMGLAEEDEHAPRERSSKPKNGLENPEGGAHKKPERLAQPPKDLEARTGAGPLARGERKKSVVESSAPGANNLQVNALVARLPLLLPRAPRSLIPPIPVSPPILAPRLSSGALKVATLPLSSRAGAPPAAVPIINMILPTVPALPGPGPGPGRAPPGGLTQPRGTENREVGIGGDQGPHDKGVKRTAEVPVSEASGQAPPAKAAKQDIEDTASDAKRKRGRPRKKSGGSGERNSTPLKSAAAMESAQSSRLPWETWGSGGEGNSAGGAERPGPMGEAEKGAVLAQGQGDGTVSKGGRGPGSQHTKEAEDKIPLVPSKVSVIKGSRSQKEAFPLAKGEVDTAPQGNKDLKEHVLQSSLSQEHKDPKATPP

Binding data for two substances are collected here from paper PMC12848160.

For test [1], the target named is Mediator kinase subunit CDK8 (UniProt P49336). The test is described as follows: co-IP; immunoprecipitation with an antibody to CDK8; cells and conditions not told in the text shown (Supplementary Fig. 7H).
The target in test [2] is T1, endogenous MED23 (with a knock-in HA-tag) (human (endogenous in 293T)) (UniProt Q9ULK4).
T1 sequence: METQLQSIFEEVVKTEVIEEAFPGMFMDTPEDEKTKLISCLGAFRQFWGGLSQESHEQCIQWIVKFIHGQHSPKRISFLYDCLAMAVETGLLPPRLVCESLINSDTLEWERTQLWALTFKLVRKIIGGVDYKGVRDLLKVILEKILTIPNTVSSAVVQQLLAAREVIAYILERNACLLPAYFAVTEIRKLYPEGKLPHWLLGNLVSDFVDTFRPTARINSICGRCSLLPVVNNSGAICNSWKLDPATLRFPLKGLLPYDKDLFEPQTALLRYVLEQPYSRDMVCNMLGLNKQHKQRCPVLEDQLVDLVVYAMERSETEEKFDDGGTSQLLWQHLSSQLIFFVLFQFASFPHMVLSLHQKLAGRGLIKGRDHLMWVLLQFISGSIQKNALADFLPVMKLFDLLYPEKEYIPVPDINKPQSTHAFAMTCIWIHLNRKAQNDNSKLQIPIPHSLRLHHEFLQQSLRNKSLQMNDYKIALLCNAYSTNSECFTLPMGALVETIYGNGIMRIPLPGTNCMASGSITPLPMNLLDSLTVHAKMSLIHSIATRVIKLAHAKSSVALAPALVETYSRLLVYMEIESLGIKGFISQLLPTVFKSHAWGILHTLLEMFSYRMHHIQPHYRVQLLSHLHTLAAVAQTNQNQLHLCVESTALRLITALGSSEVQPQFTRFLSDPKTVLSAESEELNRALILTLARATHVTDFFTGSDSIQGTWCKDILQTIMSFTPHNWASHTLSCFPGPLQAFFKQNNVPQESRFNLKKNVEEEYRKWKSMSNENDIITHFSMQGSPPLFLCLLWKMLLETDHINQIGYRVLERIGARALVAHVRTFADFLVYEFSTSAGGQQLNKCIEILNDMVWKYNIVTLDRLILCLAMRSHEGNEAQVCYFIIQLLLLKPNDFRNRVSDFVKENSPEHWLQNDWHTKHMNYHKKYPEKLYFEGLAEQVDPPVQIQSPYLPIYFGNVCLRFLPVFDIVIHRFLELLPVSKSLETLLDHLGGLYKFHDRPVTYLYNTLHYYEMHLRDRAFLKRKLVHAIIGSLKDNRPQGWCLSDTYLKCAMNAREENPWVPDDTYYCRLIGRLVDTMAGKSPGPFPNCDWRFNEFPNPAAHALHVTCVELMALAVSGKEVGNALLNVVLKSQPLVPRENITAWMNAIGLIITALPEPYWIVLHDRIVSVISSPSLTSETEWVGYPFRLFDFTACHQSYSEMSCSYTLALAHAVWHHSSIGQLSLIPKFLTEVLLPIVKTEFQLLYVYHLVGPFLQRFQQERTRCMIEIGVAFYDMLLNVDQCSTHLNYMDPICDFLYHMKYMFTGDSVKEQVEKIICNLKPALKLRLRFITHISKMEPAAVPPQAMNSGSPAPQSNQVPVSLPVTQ
The test is described as follows: co-IP; 293T cells with HA-tag knocked in at the MED23 locus (WT 293T as control); lysis in PBS with 5 mM EDTA, 1% Triton X-100; anti-HA beads, 4 °C overnight; Western blot. Background: Immunoblotting shows a protein as a band on a membrane.

Turning to “RFX5 (in the CDK8 immunoprecipitate) (from UniProt P48382 1-616)”, the binding result in test [1] is “binds”.
For the substance “endogenous RFX5 (from UniProt P48382 1-616)”, the binding result in test [2] is listed as “binds”.
